# “And” between values parts separate entries of the source, which are not always exact repeats. Equal entries are not always repeated. Some of the results follow. Further columns of the screen follow, without active or inactive calls. Compounds called inactive in the main read-out are mostly missing here. Potencies come from curve fits of mixed quality, noted in brackets.
# Assay: qHTS Assay to Find Inhibitors of Chronic Active B-Cell Receptor Signaling
# Conditions: ABC-DLBCL IkBa-CBG/CBR reporter, luminescence ratio (green luciferase fused to IkBa over red control in TMD8 lymphoma cells), 4 h
# How it was run: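 TMD8 human ABC-DLBCL cells with doxycycline-inducible IκBα–green luciferase fusion and unfused red luciferase, in 0.5% FBS medium; compounds up to 46 uM, 4 h at 37C. Green/red luminescence ratio, filter-overlap corrected, fitted to concentration-response curves.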
# [1] = measured here: CBR red luminescence, cell number
# [2] = measured here: IkBa-CBG green luminescence
Compound,AC50 [1],AC50 [2]
C[C@]12CC[C@H](O)CC1=CCC1C2CC[C@]2(C)C(=O)[C@H](Br)CC12 (some centres not stated),"23.1 µM [falling, partial curve]",
O=c1[nH]c(=O)n(-c2cccc(F)c2)c(O)c1/C=C1\C=Nc2ccccc21,"14.1 µM [falling, single point]",
COc1ccc(C(=O)CC2(CC(=O)c3ccc(OC)cc3)C(=O)N(C)C(=O)N(C)C2=O)cc1,"0.58 µM [rising, full curve, poor fit]",
Cn1ccc(NC(=O)CCl)n1,"15.8 µM [falling, single point]",
CN(C)c1nc(N(C)C)nc(N(C#N)CCCl)n1,"35.5 µM [falling, single point]",
COc1cc2c(c(OC)c1OC)-c1ccc(O)c(=O)cc1C(NC(C)=O)CC2 (configuration not stated),"1.12 µM [rising, full curve, poor fit]","0.126 µM [falling, full curve, poor fit]"
Cc1cccc(CN2C(=O)CN=C(c3ccccc3Cl)c3cc(Cl)ccc32)c1,"12.6 µM [falling, single point]",
CCn1c(O)c(C(=O)CC2NCCc3ccccc32)c(=O)n(CC)c1=S (configuration not stated),"1.58 µM [rising, partial curve, poor fit]",
CCOC(=O)c1c(NC(=O)/C=C\C(=O)O)sc(C)c1-c1ccccc1,"35.5 µM [falling, single point]",
O=C(c1cccc2ccccc12)C1CCCN(Cc2ccon2)C1 (configuration not stated),"35.5 µM [falling, single point]",
Cc1cc(/C=C2/C(=O)NC(=O)N(c3ccc(Br)cc3)C2=O)c(C)n1C,"0.1 µM [rising, full curve, poor fit]",
C[C@H]1O[C@@H](O[C@H]2[C@@H](O)C[C@H](O[C@H]3[C@@H](O)C[C@H](O[C@H]4CC[C@@]5(C)[C@H](CC[C@@H]6[C@@H]5CC[C@]5(C)[C@@H](C7=CC(=O)OC7)CC[C@]65O)C4)O[C@@H]3C)O[C@@H]2C)C[C@H](O)[C@@H]1O,,"1.84 µM [rising, full curve]"
CCN(CC)CCN=Cc1c(O)n(C2CCCCCC2)c(=O)[nH]c1=O,"29.1 µM [rising, single point]",
CNS(=O)(=O)c1ccc(-c2ccc(C=C3C(=O)NC(=O)NC3=O)o2)cc1,"15.8 µM [falling, single point]",
Cc1cc(NC(=O)COC(=O)c2c(C)nn(Cc3ccccc3Cl)c2Cl)no1,"7.31 µM [falling, single point]",
O=C(Nc1cccc(OC(=O)N2CCCCC2)c1)N1CCCCC1,"0.116 µM [falling, full curve, poor fit]",
O=c1oc(Nc2cccc(F)c2)nc2ccccc12,"1.58 µM [falling, full curve]",
CC(=O)c1c(O)cc(O)c(C(C)=O)c1O,"35.5 µM [falling, single point]",
CCCCCn1c(=O)c(C(=O)NCc2ccncc2)c(O)c2ccccc21,"14.1 µM [falling, partial curve, poor fit]",
Cc1cccc(Cn2c(=O)oc3ccc(C)cc32)c1,"5.62 µM [rising, partial curve, poor fit]",

Compound,AC50 [1],AC50 [2]
CNC(=O)OCCc1n(C)cc[n+]1C,"0.00411 µM [rising, full curve, poor fit]",
COc1ccc(NC(=O)CN(C)C(=O)Cn2c(=O)oc3ccccc32)cc1,"0.164 µM [falling, full curve, poor fit]",
O=c1ccc2cc3ccoc3c(O)c2o1,"0.164 µM [rising, full curve, poor fit]",
CCOP(=S)(OCC)SCC(=O)NC(C(=O)O)C(C)C (configuration not stated),"0.461 µM [falling, full curve, poor fit]",
COc1ccccc1OCCNCC(O)COc1cccc2[nH]c3ccccc3c12 (configuration not stated),"11.2 µM [falling, partial curve] and 22.4 µM [falling, single point]",
COC(=O)C(O)(c1ccc(NC(=S)NC(=O)c2ccc(Cl)cc2Cl)cc1)C(F)(F)F (configuration not stated),"3.66 µM [falling, partial curve, poor fit]",
CN1CCC(NCCC(c2ccc(F)cc2)c2ccc(Cl)cc2)CC1 (configuration not stated),"28.2 µM [falling, single point]",
O=c1oc2ccccc2c(O)c1[C@H]1c2ccc(O)cc2Oc2c1c(=O)oc1ccccc21,"1.41 µM [falling, partial curve, poor fit]","14.1 µM [rising, partial curve, poor fit]"
Cc1ccc(S(=O)(=O)NCCC(=O)Nc2ccc(Cl)cc2C(=O)c2ccccc2)cc1,"29.1 µM [falling, single point]",
Cc1ccc(/C=C2\C(=O)NC(=S)N(c3ccccc3F)C2=O)s1,"4.61 µM [falling, full curve]",
COC(=O)C1=C(c2ccc(OC)c(OC)c2)C[C@@H]2CC[C@H]1N2C(=O)NCCc1ccccc1,"5.17 µM [rising, partial curve, poor fit]",
O=C1NC(=S)N(Cc2ccco2)C(=O)/C1=C\c1cccs1,"35.5 µM [falling, partial curve, poor fit]",
Cc1ccc(Nc2nc(N/N=C\c3ccc4c(c3)OCO4)nc(N3CCOCC3)n2)cc1,"11.2 µM [falling, single point]",
c1ccc(Nc2cccc3ccccc23)cc1,"25.9 µM [rising, single point]",
COc1ccc(-c2cc(=NCCC(=O)O)c3cc(C)ccc3o2)cc1,"0.316 µM [rising, full curve, poor fit]",
CCc1c(C)nc(N)nc1N1N=C1SCCOc1ccccc1,"11.2 µM [falling, partial curve]",
C[C@@H]1O[C@@H](O[C@H]2C[C@@H](O)[C@]3(CO)[C@@H]4C(CC[C@]3(O)C2)[C@@]2(O)CC[C@H](C3COC(=O)C3)[C@@]2(C)C[C@H]4O)[C@H](O)[C@H](O)[C@H]1O (some centres not stated),"9.2 µM [falling, partial curve, poor fit]",
CN1/C(=C\C=C\C2=[N+](C)c3ccc4ccccc4c3C2(C)C)C(C)(C)c2ccccc21,"11.2 µM [falling, single point]",
O=C(/C=C/c1ccccc1)NCCc1cnc[nH]1,"35.5 µM [falling, single point]","35.5 µM [rising, partial curve, poor fit]"
O=C(O)C(F)(F)S(=O)(=O)O,"31.6 µM [falling, single point]",

Compound,AC50 [1],AC50 [2]
CCCN1CC(C)C(OC(C)=O)(c2ccccc2)CC1C (configuration not stated),"13 µM [rising, partial curve, poor fit]",
O=c1c2ccccc2nc(/C=C/c2ccc([N+](=O)[O-])o2)n1-c1ccc(O)cc1,"6.31 µM [falling, single point]","2.82 µM [falling, full curve]"
COc1cc2c(cc1/C=C/[N+](=O)[O-])OCO2,"15.8 µM [falling, partial curve]",
COc1ccccc1OP(=O)(Nc1ccc(Br)cc1)Oc1ccccc1OC,"35.5 µM [falling, single point]",
COc1ccc(NC(=O)CN2C(=O)CN=C(c3ccccc3)c3ccccc32)c(OC)c1,"35.5 µM [rising, single point]",
COC(=O)C1=C(c2ccc(Cl)c(C(F)(F)F)c2)C[C@@H]2CC[C@H]1N2C(=O)NCc1ccco1,"18.4 µM [falling, single point]",
Cc1cc(C(=O)C[N+]23CCN(CC2)CC3)c(C)n1-c1ccc(Br)cc1,"8.91 µM [falling, partial curve]",
O=C1C2CCCN2C(c2ccncc2)N1c1ccc(Cl)c(Cl)c1 (configuration not stated),"3.16 µM [rising, full curve, poor fit]",
CCCNC(=O)c1c(N)n(Cc2ccco2)c2nc3ccccc3nc12,"32.6 µM [falling, partial curve, poor fit]",
CC(C)[C@@]1(NC(=O)[C@@H]2C=C3c4cccc5[nH]cc(c45)C[C@H]3N(C)C2)O[C@@]2(O)[C@@H]3CCCN3C(=O)[C@H](Cc3ccccc3)N2C1=O,"29.1 µM [rising, partial curve, poor fit]",
C/C(=N\NC(=O)c1ccccc1)c1c(O)n(C2CCCCC2)c(=O)[nH]c1=O,"2 µM [falling, full curve]",
Cc1nn(C)c(C)c1CN(Cc1nc(-c2cc(F)ccc2F)oc1C)C1CC1,"28.2 µM [falling, single point]",
O=c1[nH]c(=S)[nH]c(O)c1N=Nc1ccc(OC(F)F)cc1,"7.08 µM [falling, partial curve]",
CC1(C)C(c2ccccc2)=NC(c2cccnc2)=[N+]1[O-],"0.1 µM [falling, full curve, poor fit]",
CN1C(=O)C(Cc2ccc3c(c2)OCO3)C(=O)N(C)C1=O,"0.0082 µM [rising, full curve, poor fit]",
CC1=Nc2cc(C(=O)N3CCC4(CC3)OCCO4)ccc2Sc2ccc(Cl)cc21,"2.24 µM [rising, partial curve, poor fit]",
Cc1cc([N+](=O)[O-])nn1Cc1ccc(C(=O)N/N=C/c2ccc(N(C)C)cc2)cc1,"10 µM [falling, partial curve, poor fit]",
CCOP(=O)(c1c(F)c(F)c(F)c(F)c1F)C1(O)CCCCC1 (configuration not stated),"0.0731 µM [falling, full curve, poor fit]",

# Whole records, quoted from the list.
# O=C1NC(=S)N(Cc2ccco2)C(=O)/C1=C\c1cccs1 as listed: AC50 [1]: 35.5 µM [falling, partial curve, poor fit]
# Cc1cc([N+](=O)[O-])nn1Cc1ccc(C(=O)N/N=C/c2ccc(N(C)C)cc2)cc1 as listed: AC50 [1]: 10 µM [falling, partial curve, poor fit]

# — PubChem BioAssay AID493014 (National Center for Advancing Translational Sciences (NCATS), 2011)
